The text below walks through data of EP0402734A2, “Composition for the treatment of application of the central nervous system and to enhance cerebral perfusion” (Dr. Karl Thomae GmbH, priority 1989, dated 1990).

This series has as its system inhibitorischen Autorezeptoren in hippocampalem Gewebe. Put plainly: Transmitter release study: in vitro acetylcholine release from electrically stimulated hippocampal slices, antagonism of carbachol. In kind it is cell-based, Ratten. Particulars: selectivity: cortex M₁ binding versus ACh release in hippocampus. From the text: B. Transmitter Release Studien
Die Versuche zur in-vitro Freisetzung von Acetylcholin aus hippocampalen Gewebeschnitten wurden in Analogie zu Anord nungen durchgeführt, die für die Freisetzung von 5-HT aus Hypothalamus- bzw. Hippocampus-Gewebe beschrieben sind (vgl. M.H. Richards, Naunyn Schmiedeberg's Arch. Pharmacol. 329, 359-366 (1985) und T.J. Feuerstein, G. Hertting und R. Jackisch, Europ. J. Pharmacol. 107, 233-242 (1985)).
Männliche Ratten (Stamm Chbb:Thom, Gewicht 200 bis 300 g) wurden ohne Vorbehandlung dekapitiert; das gesamte Gehirn wurde sofort entnommen und unter Eiskühlung zerlegt. Gemäß den oben beschriebenen Verfahren wurde der Hippocampus in 0,4 mm dicke Schnitte mit Hilfe eines McIlwain-Gewebehackers geschnitten. Die Gewebeschnitte wurden 30 Minuten lang bei 37°C vorincubiert in Gegenwart von 0,05 mM ³H-Cholin in Krebs-Henseleit Puffer der folgenden Zusammensetzung: 120 mM NaCl, 4,8 mM KCl, 1,3 mM CaCl₂, 1,2 mM KH₂PO₄, 1,2 mM MgSO₄ und 25 mM NaHCO₃. Der Puffer enthielt zusätzlich 2 g Glucose und 100 mg EDTA. Der Puffer wurde mit Natronlauge auf einen pH-Wert von 7,4 bei 20°C eingestellt. Alle Lösungen wurden kontinuierlich mit 95 % O₂ und 5 % CO₂ gesättigt. Die Gewebeschnitte wurden daraufhin gespült, jeder Gewebeschnitt wurde jeweils willkürlich auf 12 Superfusionseinheiten gegeben und mit der Pufferlösung bei 37°C bei einer Fließgeschwindigkeit von 1 ml/min überspült. Die Gewebeschnitte wurden jeweils von einem Polypropylennetzwerk zwischen zwei Platinelektroden gehalten. Nach 50-minütiger Überspülung wurden 4-Minuten-Fraktionen des Superfusats über eine gesamte Zeitdauer von 92 Minuten gesammelt. Die Gewebeschnitte wurden zweimal elektrisch stimuliert, und zwar 60 Minuten (S1) und 100 Minuten (S2) nach Beginn der Superfusion. Dabei wurden Rechteckimpulse von 2 ms Dauer und mit einer Frequenz von 3 Hz 100 Sekunden lang bei 5 V/cm und 24 mA mittels eines HSE Stimulators II der Firma Hugo Sachs Elektronik, Hugstetten, West-Deutschland, verabreicht. Die zu prüfenden Substanzen wurden dem Puffer ab 20 Minuten vor dem Zeitpunkt S2 zusammen mit dem Agonisten (Carbachol) beigefügt. Am Ende wurden die Gewebeschnitte aus den Kammern entfernt und zur Bestimmung des verbliebenen Tritiums solubilisiert. […]
For `CCN(CC)CC1CCCCN1CC(=O)N1c2cc(Cl)ccc2C(=O)Nc2cccnc21` (racemic) [C, (±)-9-Chlor-11-[[2-[(diethylamino)methyl]-1-piperidinyl]acetyl]-5,11-dihydro-6H-pyrido[2,3-b][1,4]benzodiazepin-6-on], the “Verhältnis von IC₅₀ (Cortex) zu pA₂ (ACh-Release)” value (“Verhältnis von IC₅₀” below) turned out to be 10.

In the case of `CCN(CC)CC1CCCCN1CC(=O)N1c2ccccc2C(=O)Nc2cccnc21` (single isomer, unassigned; (+)) [A, (+)-11-[[2-[(Diethylamino)methyl]-1-piperidinyl]acetyl]-5,11-dihydro-6H-pyrido[2,3-b][1,4]benzodiazepin-6-on], the “Verhältnis von IC₅₀” value amounted to 14.

On to `O=C1Nc2cccnc2N(C(=O)CCC#CCN2CCCCC2)c2ccccc21` [B, 5,11-Dihydro-11-[1-oxo-6-(1-piperidinyl)-4-hexin-1-yl]-6H-pyrido[2,3-b][1,4]benzodiazepin-6-on], for which the “Verhältnis von IC₅₀” value stood at 19.

Take `CCCN(CCC)CC1CCCCN1CCNC(=O)N1c2ccccc2C(=O)Nc2cccnc21.CS(=O)(=O)O` (stereo not shown) [D, 5,11-Dihydro-11-[[[2-[2-[(dipropylamino)methyl]-1-piperidinyl]ethyl]amino]carbonyl]-6H-pyrido[2,3-b][1,4]benzodiazepin-6-on-methansulfonat]: the “Verhältnis von IC₅₀” value is on record as 20.

For `O=C1Nc2cccnc2N(C(=O)N2CCCC(CCCN3CCCCC3)C2)c2ccccc21` (stereo not shown) [E, 5,11-Dihydro-11-[[3-[3-(1-piperidinyl)-1-propyl]-1-piperidinyl]carbonyl]-6H-pyrido[2,3-b][1,4]benzodiazepin-6-on], the “Verhältnis von IC₅₀” value stood at 35.

As to `Cc1scc2c1N(C(=O)CN1CCC(CCCN3CCCCC3)CC1)c1ccccc1NC2=O` [F, 4,9-Dihydro-3-methyl-4-[[4-[3-(1-piperidinyl)-1-propyl]-1-piperidinyl]acetyl]-10H-thieno[3,4-b][1,5]benzodiazepin-10-on], the “Verhältnis von IC₅₀” value is reported as 3.

Consider `Cc1scc2c1N(C(=O)CCC#CCN1CCCCCC1)c1ccccc1NC2=O` [H, 4,9-Dihydro-3-methyl-4-[6-(hexahydro-1H-1-azepinyl)-1-oxo-4-hexin-1-yl]-10H-thieno[3,4-b][1,5]benzodiazepin-10-on], for which the “Verhältnis von IC₅₀” value amounted to 7.

As for `CCN(CC)CC1COCCN1CCCC(=O)N1c2ccccc2C(=O)Nc2cccnc21` (stereo not shown) [I, 11-[4-[3-[(Diethylamino)methyl]-4-morpholinyl]-1-oxo-1-butyl]-5,11-dihydro-6H-pyrido[2,3-b][1,4]benzodiazepin-6-on], the “Verhältnis von IC₅₀” value worked out at 3.

`CN(CCC1CCCN1C)CC(=O)N1c2ccccc2C(=O)Nc2cccnc21` (stereo not shown) [K, 5,11-Dihydro-11-[[[2-(1-methyl-2-pyrrolidinyl)ethyl]methylamino]acetyl]-6H-pyrido[2,3-b][1,4]benzodiazepin-6-on]: the “Verhältnis von IC₅₀” value was determined as 10.

Regarding `CN(CCC1CCCCCN1C)CC(=O)N1c2ccccc2C(=O)Nc2cccnc21` (stereo not shown) [L, 5,11-Dihydro-11-[[[2-(1-methyl-hexahydro-1H-2-azepinyl)ethyl]methylamino]acetyl]-6H-pyrido[2,3-b][1,4]benzodiazepin-6-on], the “Verhältnis von IC₅₀” value amounted to 11.
